Test results as given in the supplement of paper PMC3334620.
The full ranking holds about 33,000 sequences; the median of “E-score (-0.5 to 0.5)” is about -0.0014, and the highest 2% start at about 0.25. This is one part of the list.

target: T1, Cad1 (UniProt P24813); test: PBM E-score (8-mer binding enrichment) (E-score (-0.5 to 0.5)); higher = stronger / more preferred TF binding; conditions: protein concentration: 100 nM; construct: GST-full length
T1 sequence: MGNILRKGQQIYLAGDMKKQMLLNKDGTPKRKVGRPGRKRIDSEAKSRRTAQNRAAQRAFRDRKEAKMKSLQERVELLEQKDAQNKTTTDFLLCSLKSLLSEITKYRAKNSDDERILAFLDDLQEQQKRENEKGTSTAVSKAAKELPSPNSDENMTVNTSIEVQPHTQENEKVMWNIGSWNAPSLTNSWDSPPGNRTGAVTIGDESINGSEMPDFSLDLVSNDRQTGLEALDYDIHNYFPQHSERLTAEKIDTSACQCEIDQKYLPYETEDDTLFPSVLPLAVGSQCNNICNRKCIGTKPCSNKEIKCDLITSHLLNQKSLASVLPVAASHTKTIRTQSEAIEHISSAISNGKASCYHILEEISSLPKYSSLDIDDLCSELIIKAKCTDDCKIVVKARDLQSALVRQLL
How it was run: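 Yeast transcription factors carrying a GST tag, as full-length proteins or DNA-binding domains, were produced by PURExpress in vitro transcription/translation. About 100-200 nM protein was applied to universal all-10-mer Agilent arrays, double-stranded by primer extension on fresh or once-stripped slides. Bound protein was detected with fluorescent anti-GST, and scans were normalised with masliner. The Universal PBM Analysis Suite gave each ungapped eight-base word, pooled with its reverse complement, an E-score, a modified Wilcoxon-Mann-Whitney statistic.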

| Sequence | PBM E-score |
| --- | --- |
| ACTCTACT | 0.0904 |
| ACGACGAA | 0.176 |
| AGAGAAGA | -0.143 |
| CCCCCAGA | -0.419 |
| ATAAGCTA | -0.0126 |
| CGCCAGTC | -0.161 |
| ACTTGCAG | -0.132 |
| CTTAACCC | -0.104 |
| AAGTCAGA | -0.0585 |
| CACGGTCA | 0.0957 |
| AAGCTTGA | -0.198 |
| ACCTACTC | 0.0147 |
| AGCCGGCC | 0.0891 |
| GCCCAAAC | 0.0902 |
| AGTATGTC | 0.135 |
| GAAATATC | 0.139 |
| AACTGACT | 0.0993 |
| ATTAGATC | 0.03 |
| GCAAGCTA | 0.083 |
| CACCTACA | 0.057 |
| ATCGGATG | 0.0369 |
| GCGTACAC | -0.00619 |
| CTTGCAGC | -0.057 |
| AACGTAAG | 0.151 |
| CAATACTG | -0.146 |

| Sequence | PBM E-score |
| --- | --- |
| ATCTTTAC | 0.106 |
| GATTCTGA | 0.119 |
| TCCTGAGA | -0.103 |
| AGAGGATC | -0.18 |
| CCCAAAAA | -0.0252 |
| TAATCGTA | 0.193 |
| CCAAGAAC | 0.0242 |
| AGTTCAAT | -0.104 |
| ACCTAATG | -0.323 |
| CCGCCTAC | 0.0652 |
| GTCCACAA | -0.0167 |
| GCACACAC | 0.0834 |
| AAGTAATA | 0.105 |
| TTAGCTAA | 0.298 |
| ACTACAAA | 0.0648 |
| ATGTCGAG | -0.0317 |
| GGTCGAGA | -0.149 |
| ACGATCCG | 0.202 |
| ATTGCGTG | 0.021 |
| CGGTCCGC | -0.101 |
| ACCACAAG | -0.17 |
| CGGCTTGC | 0.136 |
| AACACAGC | 0.281 |
| ATCTATAC | -0.0819 |
| CCACTCCC | -0.306 |

| Sequence | PBM E-score |
| --- | --- |
| CTCAACAC | 0.099 |
| CAGGCGGC | -0.105 |
| CATATCGA | 0.113 |
| GGTTGGGA | -0.211 |
| ACCGTACT | -0.02 |
| AATCCTCT | -0.191 |
| CACTTCAG | 0.0433 |
| ACACTTAT | -0.0118 |
| CTGACCCC | -0.356 |
| ACCGTTGA | -0.0844 |
| AGCTAGCC | -0.0583 |
| CCTCAACC | -0.0853 |
| CTCTCGGC | -0.251 |
| AAGTGGGA | 0.146 |
| ACTCCGTC | 0.14 |
| GCCCGAAC | -0.0307 |
| AGTCCCTC | -0.343 |
| GGAAGGAA | -0.129 |
| ACTTGTGA | -0.00176 |
| ATTCGAGA | 0.145 |
| AAGGTATG | -0.0892 |
| AGAAAGCA | 0.2 |
| TGAAAACA | 0.131 |
| AACACAAG | -0.0257 |
| GGTAGTAC | -0.0112 |

| Sequence | PBM E-score |
| --- | --- |
| GACATCAA | 0.182 |
| CTCCCGCA | -0.046 |
| ACCCACCC | 0.0404 |
| AGTACGTG | -0.145 |
| GGTGCCCA | -0.106 |
| ATCAACGC | 0.153 |
| ATACAGAG | -0.104 |
| GCCGCAAC | 0.0201 |
| CTTGCAAC | 0.171 |
| GCTGACAA | 0.412 |
| AAAATCCC | 0.0089 |
| GTACTAGA | 0.127 |
| AAGCCTGA | -0.0514 |
| ACTTAGTA | 0.213 |
| GAACCTAC | -0.0734 |
| ACATCGGG | -0.191 |
| CGCGGTCA | 0.0964 |
| ACTTACAG | 0.0368 |
| ATACGCGA | 0.148 |
| CAGTCTCG | -0.184 |
| CTCTACTA | -0.169 |
| ATACAGGG | 0.0876 |
| CCGGATCA | -0.0424 |
| GTTGGCGA | 0.0821 |
| AATACGAT | 0.169 |

An excerpt of these results, bar-delimited.
Sequence | PBM E-score
AAGCCTGA | -0.0514
ACTTAGTA | 0.213
GAACCTAC | -0.0734
ACATCGGG | -0.191
CGCGGTCA | 0.0964
ACTTACAG | 0.0368

(list continues)

| Sequence | PBM E-score |
| --- | --- |
| CCGATGCA | -0.0515 |
| ATACCGCA | -0.0232 |
| CTGGTCCA | -0.13 |
| CCTGTGCC | -0.136 |
| GATAGCGA | 0.0786 |
| CCAGCTAG | -0.0767 |
| AGAAGAAG | -0.179 |
| CTCAGGCA | 0.034 |
| ACACCATA | 0.0574 |
| CCCATCTA | -0.157 |
| ACTACGTA | 0.12 |
| ATGATCCA | -0.283 |
| AATCTAAC | 0.0036 |
| TAACCATA | -0.0259 |
| AGCATATC | 0.025 |
| AATATTGT | 0.228 |
| GCGTTTGA | -0.134 |
| AAAGAGGG | -0.156 |
| AGCGCTAC | -0.068 |
| CTGCCATA | 0.188 |
| GATCCCAC | 0.126 |
| ATTTGCGC | 0.151 |
| AATCTTAG | 0.0351 |
| AGTGTTAT | 0.0689 |
| GTAGATGA | 0.118 |

Some of the entries so far, tab-delimited:
Sequence	PBM E-score
ATACCGCA	-0.0232
AGAAGAAG	-0.179
CCCATCTA	-0.157
AGCATATC	0.025
GCGTTTGA	-0.134
ATTTGCGC	0.151
AATCTTAG	0.0351

The results go on:

| Sequence | PBM E-score |
| --- | --- |
| GGCGAAAC | 0.177 |
| TGGATCCA | 0.173 |
| GGTTGGCA | -0.167 |
| CTAAGTCA | 0.0905 |
| CATTCGTC | 0.0375 |
| ATAGCTGC | 0.202 |
| GCGGGCAA | 0.0324 |
| AATTCGCC | 0.154 |
| CTACGTGA | -0.114 |
| CCCAACTA | 0.191 |
| CCCGAGAG | -0.141 |
| AGCCATCA | 0.169 |
| GACTGAAA | 0.133 |
| AATATTAT | 0.194 |
| CGTTAACC | 0.0636 |
| CGAAAACC | -0.0625 |
| TCTAGGAA | -0.16 |
| GAGAAAGA | 0.121 |
| GAGCAAAA | -0.0143 |
| CACTACGC | -0.154 |
| ATCCAGGA | 0.0813 |
| TGACTACA | -0.0163 |
| AACCATAC | -0.0421 |
| CAACTGCG | -0.0285 |
| CTCCCTCC | -0.248 |

| Sequence | PBM E-score |
| --- | --- |
| CACTTGGA | 0.0343 |
| ACTAGTAA | 0.15 |
| AGAGTCAC | -0.0263 |
| CAGGTAGG | -0.00141 |
| GAACAGCC | -0.096 |
| ACATTCGG | 0.0355 |
| AGATACTA | 0.0948 |
| AGGCCCTA | -0.00699 |
| AGTAAGGG | 0.0236 |
| ATCTAGTG | -0.0859 |
| CGACTTAA | 0.0481 |
| CGAACTGC | -0.0728 |
| AGAAACTG | 0.00645 |
| CTCCTGCC | 0.00246 |
| GGCAATAA | 0.0187 |
| TGTCGAAA | 0.0189 |
| GGAAAGCA | 0.0683 |
| CTGGTGAC | -0.144 |
| CAGATTGA | 0.0187 |
| CAATAGTG | 0.0793 |
| GGTGGAGA | -0.199 |
| CAAGACTG | -0.0299 |
